# Results as given in patent publication US12649750B2, “Macrocyclic compounds, compositions, and methods of using thereof” (Sionna Therapeutics Inc., priority 2022, dated 2026).
# Chains of the proteins cited; added tags and fusions are not shown. A line that says so, or that is headed by a name, gives the form on record, which may keep a tag or linker. Residues count along the entry.
# UniProt P13569, 423-646 limits assumed: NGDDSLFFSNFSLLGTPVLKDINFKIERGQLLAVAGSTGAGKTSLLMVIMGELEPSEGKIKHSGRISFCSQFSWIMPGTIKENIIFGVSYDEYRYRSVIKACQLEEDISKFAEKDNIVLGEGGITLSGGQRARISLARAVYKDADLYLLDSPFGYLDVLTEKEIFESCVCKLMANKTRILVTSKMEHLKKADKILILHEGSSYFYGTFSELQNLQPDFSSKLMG
# UniProt P13569, with tags, fused parts or gaps DEL508-508: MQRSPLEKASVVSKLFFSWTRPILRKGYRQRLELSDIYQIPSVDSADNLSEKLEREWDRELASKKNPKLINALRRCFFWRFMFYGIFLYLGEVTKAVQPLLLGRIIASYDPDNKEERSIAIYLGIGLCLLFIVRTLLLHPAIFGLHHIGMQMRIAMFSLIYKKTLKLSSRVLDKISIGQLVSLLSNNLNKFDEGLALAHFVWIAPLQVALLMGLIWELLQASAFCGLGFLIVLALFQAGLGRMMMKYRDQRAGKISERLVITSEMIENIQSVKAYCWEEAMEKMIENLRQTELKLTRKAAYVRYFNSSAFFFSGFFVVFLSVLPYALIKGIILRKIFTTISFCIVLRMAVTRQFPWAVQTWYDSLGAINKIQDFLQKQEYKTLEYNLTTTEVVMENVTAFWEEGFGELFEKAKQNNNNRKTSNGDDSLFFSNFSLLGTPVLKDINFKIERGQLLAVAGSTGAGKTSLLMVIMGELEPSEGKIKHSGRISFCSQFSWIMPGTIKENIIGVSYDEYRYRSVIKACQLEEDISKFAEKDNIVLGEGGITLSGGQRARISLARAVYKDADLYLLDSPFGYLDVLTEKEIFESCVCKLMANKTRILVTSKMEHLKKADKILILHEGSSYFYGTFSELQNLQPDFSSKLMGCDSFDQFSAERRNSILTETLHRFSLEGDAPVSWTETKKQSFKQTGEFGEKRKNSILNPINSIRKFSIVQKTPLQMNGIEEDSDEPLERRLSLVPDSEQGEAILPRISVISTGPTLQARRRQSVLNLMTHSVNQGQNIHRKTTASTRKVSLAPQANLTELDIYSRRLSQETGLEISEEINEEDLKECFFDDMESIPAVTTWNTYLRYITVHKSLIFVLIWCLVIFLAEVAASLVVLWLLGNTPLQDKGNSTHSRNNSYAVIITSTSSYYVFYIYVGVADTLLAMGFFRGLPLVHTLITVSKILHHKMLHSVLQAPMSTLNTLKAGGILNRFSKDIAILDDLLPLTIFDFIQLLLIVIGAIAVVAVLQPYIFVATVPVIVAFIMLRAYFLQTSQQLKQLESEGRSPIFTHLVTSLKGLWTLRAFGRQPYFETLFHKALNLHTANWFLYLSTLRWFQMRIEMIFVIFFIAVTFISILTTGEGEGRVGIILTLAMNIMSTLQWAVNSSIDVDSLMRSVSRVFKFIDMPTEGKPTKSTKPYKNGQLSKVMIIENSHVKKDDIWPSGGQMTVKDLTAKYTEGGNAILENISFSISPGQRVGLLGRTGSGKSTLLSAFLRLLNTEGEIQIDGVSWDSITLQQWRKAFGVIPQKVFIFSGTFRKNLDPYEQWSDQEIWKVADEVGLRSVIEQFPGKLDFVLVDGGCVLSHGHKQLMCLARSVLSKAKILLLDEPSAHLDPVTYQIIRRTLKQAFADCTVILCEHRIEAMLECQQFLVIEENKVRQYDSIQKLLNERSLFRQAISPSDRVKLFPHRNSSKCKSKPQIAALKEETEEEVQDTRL
# At least one compound was matched to its structure with a doubt left.
# Key:
# NBD1 = molecular target: T1, NBD1 (Homo sapiens, UniProt P13569); assay: Aggregation analysis using differential static light scattering (DSLS), thermal stability of NBD1 (ΔTagg); format: binding; settings: ΔTagg versus DMSO control, NBD1 0.2 mg/ml
# T1 construct: Purified recombinant NBD1 was produced using previously described methods; made in house
# Method: Example 386. Aggregation Analysis Using Differential Static Light Scattering (DSLS)
# Purified recombinant NBD1 was produced using previously described methods (A. Schmidt, J. L. Mendoza, P. J. Thomas (2011) Biochemical and Biophysical Approaches to Probe CFTR Structure (365-376) M. D. Amaral, K. Kunzelmann (eds.), Cystic Fibrosis, Methods in Molecular Biology 741, Springer Science+Business Media). The effect of test compounds on thermal stability of NBD1 was evaluated by differential static light scattering (DSLS) using the Harbinger Stargazer-384 instrument (Epiphyte Three, Toronto, Canada). Test compounds were dissolved and diluted to desired concentrations in 100% DMSO. […]
# NBD1 protein was diluted to 0.2 mg/ml in S200 buffer (50 mM Tris-HCl, 150 mM NaCl, 5 mM MgCl2, 2 mM ATP, 2 mM DTT, pH7.6) containing 1% glycerol. […] At the end of the experiment run, instrument software integrated image files and analyzed data automatically. […] A temperature of aggregation (Tagg) was calculated based on the inflection point of the curve. To better compare data across experiments the average Tagg for DMSO control wells was calculated and subtracted from values for wells containing compounds to obtain a “ΔTagg” value. […]
# CFTR = molecular target: T2, CFTR (Homo sapiens, UniProt P13569, DEL508-508); assay: TECC24 AUC fold over DMSO @10 μM, CFTR-mediated transepithelial chloride transport in CF-HBE cells; format: cell-based; settings: test agent AUC divided by DMSO vehicle AUC, primary CF-HBE cells, ΔF508 homozygous donor, 48 hours incubation
# T2 construct: Primary human bronchial epithelial cells from a ΔF508 homozygous CF donor; host or cells: primary human bronchial epithelial cells (CF-HBE), ΔF508 homozygous donor
# Method: Example 387. TECC24 AUC Fold Over DMSO @10 μM
# The effects of a test agent on CFTR-mediated transepithelial chloride transport is measured using TECC24 recording analysis. Test agents are solubilized in DMSO. Solubilized test agents are mixed with incubation medium containing DMEM/F12, Ultroser G (2%; Crescent Chemical, catalog #67042), Hyclone Fetal Clone II (2%; GE Healthcare, catalog #SH30066.02), bovine brain extract (0.25%; Lonza, catalog #CC-4098), insulin (2.5 μg/mL), IL-13 (10 ng/mL), hydrocortisone (20 nM), transferrin (2.5 μg/mL), triiodothyronine (500 nM), ethanolamine (250 nM), epinephrine (1.5 μM), phosphoethanolamine (250 nM), and retinoic acid (10 nM). […]
# Following incubation, the transwell cell culture inserts containing the test agent or control-treated CF-HBE cells are loaded onto a TECC24 apparatus (TECC v7 or MTECC v2; EP Design) to record the transepithelial voltage (VT) and resistance (TEER) using 4 AgCl electrodes per well configured in current-clamp mode. […] Efficacy is expressed as the ratio of the test agent AUC divided by vehicle AUC. […]
# If a test agent increases the AUC of the forskolin-stimulated IEQ relative to vehicle in CF-HBE cells, and this increase is inhibited by CFTR inhibitor-172, then the test agent is considered a CFTR corrector. TECC assay efficacy is expressed as the ratio of the test agent AUC divided by DMSO vehicle AUC. […]
structure (smiles),measurement,setting,value
"CC1(C)CCCCC(C)(c2cccc(CCC(=O)O)c2)c2cnc([nH]2)-c2cc(ccc2F)Oc2c(F)cc3[nH]ccc3c2CCS(=O)(=O)C1 (single isomer, unassigned) [Compound 43B, 3-[3-(23,29-difluoro-6,11,11-trimethyl-13,13-dioxo-25-oxa-13lambda6-thia-3,20,31-triazapentacyclo[24.3.1.12,5.016,24.017,21]hentriaconta-1(30),2,4,16,18,21,23,26,28-nonaen-6-yl)phenyl]propanoic Acid]",DSLS 3D (100 μM ΔT),NBD1,C (a value greater than 10 °C and less than or equal to 25 °C is marked “C”)
same,"TECC (AUC, 10 μM)",CFTR,A (a TECC value less than 12 is marked “A”)
"C[C@@H](Cc1cccc(C2(C)CCCC(C)(C)CS(=O)(=O)CCc3c(c(F)cc4[nH]ccc34)Oc3ccc(F)c(c3)-c3nc2nn3C)c1)C(=O)NOC(=O)NO (single isomer, unassigned) [Compound 186]",DSLS 3D (100 μM ΔT),NBD1,B (a value above 5 °C and less than or equal to 10 °C is marked “B”)
same,"TECC (AUC, 10 μM)",CFTR,B (a value between 12-20 is marked “B”)
